Values quoted from earlier work as cited in US8741330B2, “Transluminal drug delivery methods and devices” (priority 2006, dated 2014).

Details: as stated in Example 1; cited from earlier work

## CCN(CC)CC(=O)Nc1c(C)cccc1C [lidocaine]
  toxic blood level of lidocaine: greater than 8 μg per ml
